Test results from patent publication US20150258043A1, “USE OF SPHINGOID LONG CHAIN BASES AND THEIR ANALOGS IN TREATING AND PREVENTING BACTERIAL INFECTIONS” (YEDA RESEARCH AND DEVELOPMENT CO. LTD., priority 2012, published 2015).
Some of these results come from one statement about several compounds together. Some compounds share one range, which may span the group rather than tell each member.

Test system: P. aeruginosa strain 762
Experiment: Effect of LCBs on P. aeruginosa growth in vitro (colony counts)
Assay type: cell-based, Pseudomonas aeruginosa
Settings: classes by EC50
Procedure: P. aeruginosa strain 762 or ATCC 27853 were grown in LB medium at 37° C. until the early logarithmic phase (OD550 0.2). Bacteria were then diluted in PBS to a concentration of 5×10^3 CFU/ml. Stock solutions of sphingolipids (5 mM in 7.5% n-Octyl-β-D-Glucopyranoside (OGP) or in DMSO were prepared by sonication. Sphingolipids were added to the bacteria (0.1-50 μM in 0.075% OGP or 1% DMSO). Bacteria were incubated with sphingolipids for 2 hr at 37° C. and a sample of 200 μl bacteria solution were plated on LB agar plates, incubated overnight at 37° C. and colonies were counted.
The direct effect of sphingosine and other sphingoid long chain bases (LCBs) on the growth of P. aeruginosa was examined in vitro. Bacteria were incubated with a variety of LCBs and the EC50 values on bacterial growth were determined (Table 1).

CCCCCCCCCCCCC/C=C/[C@H](O)[C@@H](C)N [1-deoxy-D-erythro-sphingosine]
category as bacterial growth inhibitor: strong inhibitors (strong inhibitors (EC50 of 0.5-1 μM))
